{"sequences": {"note": "The chains behind the UniProt entries cited, without tags or fusion partners. Where a name states a change or a piece, a line headed by the entry shows the natural chain unless it says otherwise.", "UniProt Q9NZI7": "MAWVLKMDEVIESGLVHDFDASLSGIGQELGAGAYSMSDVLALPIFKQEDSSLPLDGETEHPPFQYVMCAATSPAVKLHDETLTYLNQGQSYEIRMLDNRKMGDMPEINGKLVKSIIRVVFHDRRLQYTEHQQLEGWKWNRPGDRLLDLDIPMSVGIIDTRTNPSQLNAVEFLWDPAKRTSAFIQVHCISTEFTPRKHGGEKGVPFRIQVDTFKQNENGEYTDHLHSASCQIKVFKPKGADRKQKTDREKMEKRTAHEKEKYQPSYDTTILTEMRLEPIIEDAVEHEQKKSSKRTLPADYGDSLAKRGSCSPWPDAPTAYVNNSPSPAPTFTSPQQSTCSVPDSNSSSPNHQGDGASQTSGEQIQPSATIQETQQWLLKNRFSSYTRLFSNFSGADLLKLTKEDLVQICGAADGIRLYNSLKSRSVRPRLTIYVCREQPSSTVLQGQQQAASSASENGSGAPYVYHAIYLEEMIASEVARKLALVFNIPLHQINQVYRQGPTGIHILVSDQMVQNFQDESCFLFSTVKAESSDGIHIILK", "UniProt Q9UBT6": "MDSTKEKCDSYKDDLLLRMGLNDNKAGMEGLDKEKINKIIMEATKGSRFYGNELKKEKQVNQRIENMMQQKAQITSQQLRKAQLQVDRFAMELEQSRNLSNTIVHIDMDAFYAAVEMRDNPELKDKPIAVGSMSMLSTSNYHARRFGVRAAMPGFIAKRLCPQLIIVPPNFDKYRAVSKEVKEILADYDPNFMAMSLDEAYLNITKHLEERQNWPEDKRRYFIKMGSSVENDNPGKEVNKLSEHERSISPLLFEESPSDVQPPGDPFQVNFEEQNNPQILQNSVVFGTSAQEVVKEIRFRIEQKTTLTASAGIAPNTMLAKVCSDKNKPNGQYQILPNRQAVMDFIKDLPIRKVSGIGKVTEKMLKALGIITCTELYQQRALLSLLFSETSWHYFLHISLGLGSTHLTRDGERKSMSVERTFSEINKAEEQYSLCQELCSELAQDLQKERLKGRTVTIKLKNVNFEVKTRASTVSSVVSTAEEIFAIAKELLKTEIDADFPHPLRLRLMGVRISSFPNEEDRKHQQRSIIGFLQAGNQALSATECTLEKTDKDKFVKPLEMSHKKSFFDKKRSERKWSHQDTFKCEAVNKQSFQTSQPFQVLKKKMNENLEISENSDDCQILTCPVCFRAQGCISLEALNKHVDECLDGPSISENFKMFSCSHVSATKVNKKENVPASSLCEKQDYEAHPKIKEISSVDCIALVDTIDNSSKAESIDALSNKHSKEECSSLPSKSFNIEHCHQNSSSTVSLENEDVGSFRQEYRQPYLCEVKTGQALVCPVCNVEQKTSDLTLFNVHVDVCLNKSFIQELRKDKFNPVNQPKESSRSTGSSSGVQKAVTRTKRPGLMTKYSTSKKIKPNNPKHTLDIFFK", "UniProt Q9P2J8": "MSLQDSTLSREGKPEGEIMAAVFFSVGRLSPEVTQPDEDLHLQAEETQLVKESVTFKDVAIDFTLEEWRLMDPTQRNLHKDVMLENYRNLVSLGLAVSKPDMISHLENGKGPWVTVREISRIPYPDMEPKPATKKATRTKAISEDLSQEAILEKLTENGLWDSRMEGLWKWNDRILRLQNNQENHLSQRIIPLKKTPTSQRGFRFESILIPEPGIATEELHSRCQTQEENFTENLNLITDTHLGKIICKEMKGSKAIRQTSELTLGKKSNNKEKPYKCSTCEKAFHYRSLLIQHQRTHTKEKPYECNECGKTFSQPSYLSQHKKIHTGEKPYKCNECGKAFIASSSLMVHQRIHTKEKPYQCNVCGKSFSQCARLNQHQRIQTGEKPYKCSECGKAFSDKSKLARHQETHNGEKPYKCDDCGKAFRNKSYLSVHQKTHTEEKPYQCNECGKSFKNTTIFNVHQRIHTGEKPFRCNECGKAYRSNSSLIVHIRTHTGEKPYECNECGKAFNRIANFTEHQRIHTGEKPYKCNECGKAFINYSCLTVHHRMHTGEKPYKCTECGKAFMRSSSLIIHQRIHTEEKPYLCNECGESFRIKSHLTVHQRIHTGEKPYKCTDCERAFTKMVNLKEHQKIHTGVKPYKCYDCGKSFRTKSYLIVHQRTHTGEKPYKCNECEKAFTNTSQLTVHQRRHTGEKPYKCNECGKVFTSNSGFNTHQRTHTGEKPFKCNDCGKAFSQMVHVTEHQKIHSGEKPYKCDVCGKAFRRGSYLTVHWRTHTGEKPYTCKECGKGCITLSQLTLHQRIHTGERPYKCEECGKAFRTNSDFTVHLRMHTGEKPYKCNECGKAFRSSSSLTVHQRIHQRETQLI", "UniProt Q9NWZ3, whole entry": "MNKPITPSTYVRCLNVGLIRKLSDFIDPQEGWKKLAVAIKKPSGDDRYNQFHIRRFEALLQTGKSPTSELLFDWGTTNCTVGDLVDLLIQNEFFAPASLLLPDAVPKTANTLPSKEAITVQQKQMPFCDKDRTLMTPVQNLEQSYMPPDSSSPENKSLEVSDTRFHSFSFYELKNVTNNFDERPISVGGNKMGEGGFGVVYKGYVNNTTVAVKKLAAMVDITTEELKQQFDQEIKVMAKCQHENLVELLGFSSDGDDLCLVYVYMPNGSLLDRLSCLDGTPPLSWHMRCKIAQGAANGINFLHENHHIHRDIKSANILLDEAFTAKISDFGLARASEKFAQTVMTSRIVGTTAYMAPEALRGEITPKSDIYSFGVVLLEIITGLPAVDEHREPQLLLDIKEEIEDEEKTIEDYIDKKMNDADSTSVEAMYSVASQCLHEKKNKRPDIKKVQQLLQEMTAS", "UniProt Q9NXR5": "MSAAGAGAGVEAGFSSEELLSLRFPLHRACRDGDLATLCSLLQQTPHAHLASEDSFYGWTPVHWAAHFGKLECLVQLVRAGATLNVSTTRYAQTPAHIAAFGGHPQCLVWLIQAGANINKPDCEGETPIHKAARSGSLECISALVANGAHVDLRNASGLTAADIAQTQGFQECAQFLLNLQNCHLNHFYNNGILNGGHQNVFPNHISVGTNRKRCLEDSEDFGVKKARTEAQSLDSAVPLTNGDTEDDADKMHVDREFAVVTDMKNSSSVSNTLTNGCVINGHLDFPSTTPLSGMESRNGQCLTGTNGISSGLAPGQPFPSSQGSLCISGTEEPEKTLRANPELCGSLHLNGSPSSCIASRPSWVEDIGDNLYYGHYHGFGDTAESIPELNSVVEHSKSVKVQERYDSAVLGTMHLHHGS", "UniProt Q9P0T7": "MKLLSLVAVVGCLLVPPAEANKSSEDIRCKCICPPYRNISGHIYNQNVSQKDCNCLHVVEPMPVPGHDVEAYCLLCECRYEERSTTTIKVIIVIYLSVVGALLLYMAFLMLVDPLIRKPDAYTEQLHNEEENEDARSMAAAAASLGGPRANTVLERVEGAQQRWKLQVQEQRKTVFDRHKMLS", "UniProt Q9UGP5": "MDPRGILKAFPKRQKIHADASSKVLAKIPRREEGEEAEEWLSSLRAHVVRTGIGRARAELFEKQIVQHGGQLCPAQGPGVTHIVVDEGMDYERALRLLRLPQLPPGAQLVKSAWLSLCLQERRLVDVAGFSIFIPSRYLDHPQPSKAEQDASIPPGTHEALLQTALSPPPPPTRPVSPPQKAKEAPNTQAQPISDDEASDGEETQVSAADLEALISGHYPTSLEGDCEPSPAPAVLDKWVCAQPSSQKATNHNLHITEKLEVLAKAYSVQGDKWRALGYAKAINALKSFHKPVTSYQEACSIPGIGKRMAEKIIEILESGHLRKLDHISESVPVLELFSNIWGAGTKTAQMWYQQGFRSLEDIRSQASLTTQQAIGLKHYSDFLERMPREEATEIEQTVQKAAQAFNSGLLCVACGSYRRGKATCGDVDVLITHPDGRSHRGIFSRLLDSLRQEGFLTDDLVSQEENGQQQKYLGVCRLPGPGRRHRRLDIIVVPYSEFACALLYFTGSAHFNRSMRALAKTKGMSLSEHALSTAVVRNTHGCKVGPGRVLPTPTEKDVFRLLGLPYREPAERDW", "UniProt Q9P2N5": "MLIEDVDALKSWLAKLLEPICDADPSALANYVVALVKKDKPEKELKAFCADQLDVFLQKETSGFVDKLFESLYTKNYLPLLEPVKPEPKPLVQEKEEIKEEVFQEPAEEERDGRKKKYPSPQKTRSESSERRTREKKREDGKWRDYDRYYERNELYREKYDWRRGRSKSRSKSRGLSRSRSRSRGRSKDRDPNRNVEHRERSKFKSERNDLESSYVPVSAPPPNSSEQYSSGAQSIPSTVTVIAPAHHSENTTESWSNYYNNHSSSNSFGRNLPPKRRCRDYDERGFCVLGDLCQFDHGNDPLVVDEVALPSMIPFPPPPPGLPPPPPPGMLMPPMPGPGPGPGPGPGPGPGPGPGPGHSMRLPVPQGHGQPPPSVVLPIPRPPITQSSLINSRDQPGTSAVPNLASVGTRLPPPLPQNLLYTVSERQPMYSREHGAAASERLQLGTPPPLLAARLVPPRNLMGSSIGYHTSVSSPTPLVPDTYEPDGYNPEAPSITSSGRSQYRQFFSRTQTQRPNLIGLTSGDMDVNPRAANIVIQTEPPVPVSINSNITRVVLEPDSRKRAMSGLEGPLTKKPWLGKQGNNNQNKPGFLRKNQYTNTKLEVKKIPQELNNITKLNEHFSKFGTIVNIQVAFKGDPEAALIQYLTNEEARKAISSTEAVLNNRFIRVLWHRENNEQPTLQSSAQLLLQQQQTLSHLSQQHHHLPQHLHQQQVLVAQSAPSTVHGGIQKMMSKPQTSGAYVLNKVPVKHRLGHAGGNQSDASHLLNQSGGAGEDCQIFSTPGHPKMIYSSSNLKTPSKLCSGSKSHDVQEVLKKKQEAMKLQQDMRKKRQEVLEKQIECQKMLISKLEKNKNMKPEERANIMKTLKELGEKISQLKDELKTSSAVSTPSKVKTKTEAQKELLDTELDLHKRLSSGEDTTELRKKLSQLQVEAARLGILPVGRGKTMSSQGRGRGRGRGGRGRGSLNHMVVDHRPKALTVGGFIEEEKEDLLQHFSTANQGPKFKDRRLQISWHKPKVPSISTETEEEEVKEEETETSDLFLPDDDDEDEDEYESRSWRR", "UniProt Q9UBT7": "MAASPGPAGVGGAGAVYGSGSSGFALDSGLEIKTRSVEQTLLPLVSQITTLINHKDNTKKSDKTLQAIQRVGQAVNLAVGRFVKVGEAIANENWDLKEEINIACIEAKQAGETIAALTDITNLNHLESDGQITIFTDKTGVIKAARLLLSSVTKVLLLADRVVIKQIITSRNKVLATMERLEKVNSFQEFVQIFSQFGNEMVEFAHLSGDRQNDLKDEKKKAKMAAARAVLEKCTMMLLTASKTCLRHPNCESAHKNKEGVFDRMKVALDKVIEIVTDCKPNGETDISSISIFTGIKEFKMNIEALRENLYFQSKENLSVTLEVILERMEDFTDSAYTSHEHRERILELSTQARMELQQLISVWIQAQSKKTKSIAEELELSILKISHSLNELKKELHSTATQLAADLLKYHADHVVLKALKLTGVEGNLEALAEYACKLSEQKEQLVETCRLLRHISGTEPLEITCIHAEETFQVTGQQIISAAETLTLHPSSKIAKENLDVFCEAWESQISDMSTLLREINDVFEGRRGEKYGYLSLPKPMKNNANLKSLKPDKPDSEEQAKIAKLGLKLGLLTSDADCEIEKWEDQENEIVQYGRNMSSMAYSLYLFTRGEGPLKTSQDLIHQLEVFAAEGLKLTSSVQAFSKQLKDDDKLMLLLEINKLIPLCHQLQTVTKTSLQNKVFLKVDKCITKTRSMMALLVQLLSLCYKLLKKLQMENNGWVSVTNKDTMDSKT", "UniProt Q9NX04": "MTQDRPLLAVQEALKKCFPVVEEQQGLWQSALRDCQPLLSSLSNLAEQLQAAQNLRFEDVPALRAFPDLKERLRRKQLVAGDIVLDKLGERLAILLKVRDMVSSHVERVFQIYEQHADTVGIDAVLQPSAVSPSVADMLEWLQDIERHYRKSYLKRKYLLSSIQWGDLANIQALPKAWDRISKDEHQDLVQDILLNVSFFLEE", "UniProt Q9UGJ1, whole entry": "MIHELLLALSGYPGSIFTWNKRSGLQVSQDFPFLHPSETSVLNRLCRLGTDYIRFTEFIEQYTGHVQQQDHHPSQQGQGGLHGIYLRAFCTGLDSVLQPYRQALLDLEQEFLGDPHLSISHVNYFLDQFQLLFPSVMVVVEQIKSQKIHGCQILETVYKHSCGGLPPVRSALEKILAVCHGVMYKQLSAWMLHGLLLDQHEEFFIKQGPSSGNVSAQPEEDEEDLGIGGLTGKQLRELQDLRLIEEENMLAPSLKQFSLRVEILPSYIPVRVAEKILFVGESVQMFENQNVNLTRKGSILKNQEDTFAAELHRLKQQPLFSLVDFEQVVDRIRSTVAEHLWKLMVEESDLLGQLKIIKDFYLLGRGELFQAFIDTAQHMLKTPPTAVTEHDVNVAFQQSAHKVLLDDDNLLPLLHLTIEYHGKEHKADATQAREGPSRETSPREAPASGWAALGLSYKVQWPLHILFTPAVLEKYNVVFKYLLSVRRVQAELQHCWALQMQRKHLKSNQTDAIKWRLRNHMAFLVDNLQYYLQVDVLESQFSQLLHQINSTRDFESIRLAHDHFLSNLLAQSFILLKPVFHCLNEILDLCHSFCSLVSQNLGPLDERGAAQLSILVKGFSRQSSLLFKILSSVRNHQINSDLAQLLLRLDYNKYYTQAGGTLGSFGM"}, "source": "the supplement of paper PMC12819154", "about": "“High-throughput peptide-centric local stability assay extends protein–ligand identification to membrane proteins, tissues and bacteria” (Nature Structural & Molecular Biology, 2025)", "note": "This is one part of the list. Small differences around the control level are noise.", "data": [{"compound": "Cc1nc(Nc2ncc(C(=O)Nc3c(C)cccc3Cl)s2)cc(N2CCN(CCO)CC2)n1 [dasatinib]", "assay": "log2 fold change of tryptic peptide abundance, ligand vs vehicle (limited proteolysis) (log2 ratio); higher = more trypsin-susceptible (destabilized)", "conditions": "ligand concentration: 5 uM; sample: K562 cleared lysate", "values": [{"target": "UBP1 (peptide sequence: RLQYTEHQQLEGWK, peptide start residue: 125) (UniProt Q9NZI7)", "log2 fold change": 0.824}, {"target": "FAM120A (peptide sequence: TCNTNPHLNALSTDSACRR, peptide start residue: 1087) (UniProt Q9NZB2)", "log2 fold change": 0.264}, {"target": "NDRG3 (peptide sequence: RDLEIERPILGQNDNK, peptide start residue: 233) (UniProt Q9UGV2)", "log2 fold change": -0.395}, {"target": "POLK (peptide sequence: ENVPASSLCEKQDYEAHPK, peptide start residue: 673) (UniProt Q9UBT6)", "log2 fold change": 0.979}, {"target": "MTMR10 (peptide sequence: TLFHNPFYIGK, peptide start residue: 550) (UniProt Q9NXD2)", "log2 fold change": 0.241}, {"target": "UniProt Q9UHA4 (peptide sequence: ELAPLFEELR, peptide start residue: 109)", "log2 fold change": -0.273}, {"target": "UniProt Q9P2J8 (peptide sequence: SSSLIIHQR, peptide start residue: 317)", "log2 fold change": -0.848}, {"target": "IRAK4 (peptide sequence: KLAAMVDITTEELK, peptide start residue: 214) (UniProt Q9NWZ3)", "log2 fold change": -0.351}, {"target": "RNF181 (peptide sequence: LENLHGAMYT, peptide start residue: 144) (UniProt Q9P0P0)", "log2 fold change": 0.0582}, {"target": "UniProt Q9NXR5 (peptide sequence: KRCLEDSEDFGVK, peptide start residue: 213)", "log2 fold change": -0.624}, {"target": "TMEM9 (peptide sequence: SMAAAAASLGGPR, peptide start residue: 137) (UniProt Q9P0T7)", "log2 fold change": 0.0938}, {"target": "DIP2B (peptide sequence: NQTPAPSAAQTSAPSKYHR, peptide start residue: 69) (UniProt Q9P265)", "log2 fold change": 0.409}, {"target": "ERAP1 (peptide sequence: GMDGFCSR, peptide start residue: 493) (UniProt Q9NZ08)", "log2 fold change": 0.0165}, {"target": "TMEM161A (peptide sequence: WANGLSEEKPLSVPR, peptide start residue: 64) (UniProt Q9NX61)", "log2 fold change": 0.163}, {"target": "UniProt Q9UGP5 (peptide sequence: ATNHNLHITEK, peptide start residue: 249)", "log2 fold change": -0.719}, {"target": "UniProt Q9NX31 (peptide sequence: ASDLSDFQSVSK, peptide start residue: 179)", "log2 fold change": 0.317}, {"target": "NLRP2 (peptide sequence: SSLLCLDLGLNHIGVK, peptide start residue: 925) (UniProt Q9NX02)", "log2 fold change": 0.634}, {"target": "RBM27 (peptide sequence: EEIKEEVFQEPAEEERDGR, peptide start residue: 96) (UniProt Q9P2N5)", "log2 fold change": -0.141}, {"target": "MRPL16 (peptide sequence: NMFAIWR, peptide start residue: 117) (UniProt Q9NX20)", "log2 fold change": -0.145}, {"target": "STIM2 (peptide sequence: VYNGILEK, peptide start residue: 670) (UniProt Q9P246)", "log2 fold change": 0.16}, {"target": "CTNNAL1 (peptide sequence: LLLSSVTK, peptide start residue: 147) (UniProt Q9UBT7)", "log2 fold change": -0.128}, {"target": "TFIP11 (peptide sequence: KDFQYEAMQER, peptide start residue: 741) (UniProt Q9UBB9)", "log2 fold change": 0.148}, {"target": "SAGE1 (peptide sequence: SMSSWLDKQEDAAVTHSICEER, peptide start residue: 64) (UniProt Q9NXZ1)", "log2 fold change": 0.776}, {"target": "CCDC59 (peptide sequence: AQEEYEQIQAK, peptide start residue: 172) (UniProt Q9P031)", "log2 fold change": 0.284}, {"target": "AFF4 (peptide sequence: TEDKNSAGHKPSSNR, peptide start residue: 784) (UniProt Q9UHB7)", "log2 fold change": -0.4}, {"target": "VAPA (peptide sequence: HLRDEGLR, peptide start residue: 195) (UniProt Q9P0L0)", "log2 fold change": 0.0906}, {"target": "C1orf109 (peptide sequence: FEDVPALR, peptide start residue: 57) (UniProt Q9NX04)", "log2 fold change": -0.0883}, {"target": "TUBGCP4 (peptide sequence: ILAVCHGVMYK, peptide start residue: 175) (UniProt Q9UGJ1)", "log2 fold change": -0.104}]}]}
